The text below walks through data of publication PMC3738513.

Chains of the proteins cited; added tags and fusions are not shown.
UniProt P03372: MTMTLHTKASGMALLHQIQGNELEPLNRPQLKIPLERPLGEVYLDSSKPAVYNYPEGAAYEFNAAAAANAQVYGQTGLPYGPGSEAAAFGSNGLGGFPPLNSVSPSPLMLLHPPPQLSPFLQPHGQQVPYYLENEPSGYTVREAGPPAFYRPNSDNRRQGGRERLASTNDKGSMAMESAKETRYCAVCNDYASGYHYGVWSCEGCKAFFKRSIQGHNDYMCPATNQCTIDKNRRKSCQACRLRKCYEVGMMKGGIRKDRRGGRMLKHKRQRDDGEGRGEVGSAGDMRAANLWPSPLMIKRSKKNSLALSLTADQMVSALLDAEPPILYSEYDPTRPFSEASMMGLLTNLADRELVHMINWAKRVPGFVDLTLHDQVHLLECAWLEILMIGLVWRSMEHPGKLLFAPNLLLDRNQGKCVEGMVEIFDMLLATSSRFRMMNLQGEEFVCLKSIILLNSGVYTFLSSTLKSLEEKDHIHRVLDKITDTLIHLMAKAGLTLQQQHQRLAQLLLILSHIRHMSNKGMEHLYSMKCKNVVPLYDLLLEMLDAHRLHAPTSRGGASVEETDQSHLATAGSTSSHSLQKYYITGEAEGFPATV

For the assay, the target named is ERα (estrogen receptor α) (UniProt P03372). Put plainly: co-IP; ERα immunoprecipitated from lysate of MCF-7/C4–12 cells transiently transfected with ERα and EBF1, treated with 10 nM E2 or vehicle; blot for EBF1; precipitating antibody not stated.

These are yes or no findings as the source states them, for the method shown. Binding seen in cells or lysates may run through a third protein. Some entries that bind do so weakly or less than the wild type. Tags and fused reporters may be left off the sequences shown.

B1: V5-tagged Early B-cell Factor 1 (EBF1) (protein, UniProt Q9UH73 1-591)
chain: MFGIQESIQRSGSSMKEEPLGSGMNAVRTWMQGAGVLDANTAAQSGVGLARAHFEKQPPSNLRKSNFFHFVLALYDRQGQPVEIERTAFVGFVEKEKEANSEKTNNGIHYRLQLLYSNGIRTEQDFYVRLIDSMTKQAIVYEGQDKNPEMCRVLLTHEIMCSRCCDKKSCGNRNETPSDPVIIDRFFLKFFLKCNQNCLKNAGNPRDMRRFQVVVSTTVNVDGHVLAVSDNMFVHNNSKHGRRARRLDPSEGTPSYLEHATPCIKAISPSEGWTTGGATVIIIGDNFFDGLQVIFGTMLVWSELITPHAIRVQTPPRHIPGVVEVTLSYKSKQFCKGTPGRFIYTALNEPTIDYGFQRLQKVIPRHPGDPERLPKEVILKRAADLVEALYGMPHNNQEIILKRAADIAEALYSVPRNHNQLPALANTSVHAGMMGVNSFSGQLAVNVSEASQATNQGFTRNSSSVSPHGYVPSTTPQQTNYNSVTTSMNGYGSAAMSNLGGSPTFLNGSAANSPYAIVPSSPTMASSTSLPSNCSSSSGIFSFSPANMVSAVKQKSAFAPVVRPQTSPPPTCTSTNGNSLQAISGMIVPPM
With B1, the binding result is given as “binds”.
